Where a name gives a salt, the structure may show the parent alone. This is one part of the list. Most entries show no effect beyond the scatter of the controls.

The subject of one assay is hPSC-derived cortical neurons (WA09). Description: nucleus roundness z-score vs screen plate; higher = rounder nuclei (more mature). As to conditions: 5 µM; treatment: days 7-14 after plating, readout day 21.
In turn, `CC(C)(Cc1ccc2ccccc2c1)NC[C@@H](O)COc1cccc(Cl)c1C#N` had a nucleus roundness z-score of -1.72. In the case of `CCOC(=O)c1c(CSc2ccccc2)n(C)c2cc(Br)c(O)c(CN(C)C)c12` [Arbidol HCl], the nucleus roundness z-score is -0.837. Consider `CO/N=C(\C(=O)N[C@@H]1C(=O)N2C(C(=O)O)=C(CSC(=O)c3ccco3)CS[C@H]12)c1csc(N)n1` [Ceftiofur HCl], for which the nucleus roundness z-score turned out to be 0.37. In turn, `O=C(CCCN1CCC(O)(c2ccc(Cl)cc2)CC1)c1ccc(F)cc1` [Haloperidol] returned a nucleus roundness z-score of -0.789. `C#Cc1cccc(Nc2ncnc3cc(OC)c(OCCCCCCC(=O)NO)cc23)c1` registered a nucleus roundness z-score of -3.71.

As for `Cc1onc(-c2ccccc2Cl)c1C(=O)N[C@@H]1C(=O)N2[C@@H]1SC(C)(C)[C@@H]2C(=O)O` [Cloxacillin Sodium], the nucleus roundness z-score worked out at 0.661. In turn, `COc1cc2nc(N3CCN(C(=O)C4COc5ccccc5O4)CC3)nc(N)c2cc1OC` (stereo unspecified) [Doxazosin Mesylate] gave a nucleus roundness z-score of 0.484.

For a further assay the test system is unchanged. Nature of the assay: KCl-induced FOS+/EGR-1+ double-positive nuclei fraction z-score (KCl minus unstimulated); higher = stronger activity-induced IEG response. As to conditions: 5 µM; treatment: days 7-14 after plating, readout day 21.
Consider `COc1ccc2[nH]c([S+]([O-])Cc3ncc(C)c(OC)c3C)nc2n1` (stereo unspecified) [Tenatoprazole], for which the “KCl-induced FOS+/EGR-1+ double-positive nuclei fraction z-score” value is 0.611.

Consider `COc1cc([C@@H]2c3cc4c(cc3[C@@H](O[C@@H]3O[C@@H]5CO[C@@H](c6cccs6)O[C@H]5[C@H](O)[C@H]3O)[C@H]3COC(=O)[C@H]23)OCO4)cc(OC)c1O` [Teniposide], for which the “KCl-induced FOS+/EGR-1+ double-positive nuclei fraction z-score” value was -1.9.

Turning to `COc1cc(OC)c(C=C2C(=O)Nc3ccccc32)c(OC)c1`, the “KCl-induced FOS+/EGR-1+ double-positive nuclei fraction z-score” value was -0.507.

Turning to `COc1ccc(Cl)cc1C(=O)NCCc1ccc(S(=O)(=O)NC(=O)NC2CCCCC2)cc1` [Glyburide], the “KCl-induced FOS+/EGR-1+ double-positive nuclei fraction z-score” value was -0.205. On the same count and under the same terms, to `Nc1ncn([C@H]2C[C@H](O)[C@@H](CO)O2)c(=O)n1` [Decitabine] belongs 0.314; to `Cc1cc2c(F)c(Oc3ncnn4cc(OC[C@@H](C)OC(=O)[C@H](C)N)c(C)c34)ccc2[nH]1`, 0.147.

In the case of `COc1ccc2cc([C@H](C)C(=O)O)ccc2c1` [Naproxen], the “KCl-induced FOS+/EGR-1+ double-positive nuclei fraction z-score” value was -1.64.

With `CC[C@H](c1ccc(O)cc1)[C@@H](CC)c1ccc(O)cc1` [Hexestrol], the “KCl-induced FOS+/EGR-1+ double-positive nuclei fraction z-score” value was 0.599. Still for that read-out and setting: then `N[C@@H](CSCCCO)C(=O)O` [Fudosteine], with 1.81; and `CCc1c(Cl)c(O)c(Cl)c(O)c1C(=O)O[C@H]1[C@H](O)[C@H](OC)[C@H](OC/C2=C\C=C\C[C@H](O)/C(C)=C/[C@H](CC)[C@@H](O[C@@H]3OC(C)(C)[C@@H](OC(=O)C(C)C)[C@H](O)[C@@H]3O)/C(C)=C/C(C)=C/C[C@@H]([C@@H](C)O)OC2=O)O[C@@H]1C` [Fidaxomicin], with 0.24; and `Cc1nc(C#Cc2ccnc(Cl)c2)c(C)n1-c1ccc(OC(F)(F)F)cc1`, with -0.509. Still for that read-out and setting: to `CCOc1ccn(-c2ccc(F)cc2)c(=O)c1C(=O)Nc1ccc(Oc2ccnc(N)c2Cl)c(F)c1` belongs -0.0968; to `Cc1c(-c2ccccc2)oc2c(C(=O)OCCN3CCCCC3)cccc2c1=O` [Flavoxate HCl], -1.23; to `C[C@H](CCC(=O)O)[C@H]1CC[C@H]2[C@@H]3C(=O)C[C@@H]4CC(=O)CC[C@]4(C)[C@H]3CC(=O)[C@]12C` [Dehydrocholic acid], 0.0904. Still for that read-out and setting: then `CNC(=O)c1cc(Oc2ccc(NC(=O)Nc3cc(C(C)(C)C)nn3-c3ccc4ncccc4c3)c(F)c2)ccn1` [DCC-2036 (Rebastinib)], with -2.23. As for `Cc1cnc(Nc2ccc(N3CCN(C)CC3)cc2)nc1Nc1cccc(S(=O)(=O)NC(C)(C)C)c1`, the “KCl-induced FOS+/EGR-1+ double-positive nuclei fraction z-score” value is -0.663. As to `CN(C)CCC(c1ccc(Cl)cc1)c1ccccn1` (stereo unspecified) [Chlorpheniramine Maleate], the “KCl-induced FOS+/EGR-1+ double-positive nuclei fraction z-score” value was found to be 0.356.

Regarding `O=C(NC1CCOCC1)c1ccc(-c2cc(-c3c[nH]nc3-c3ccccn3)ccn2)cc1`, the “KCl-induced FOS+/EGR-1+ double-positive nuclei fraction z-score” value is -0.291. For the molecule `C[C@H](CCC(=O)O)[C@H]1CC[C@H]2[C@@H]3[C@@H](O)C[C@@H]4C[C@H](O)CC[C@]4(C)[C@H]3CC[C@]12C` [Ursodiol], the “KCl-induced FOS+/EGR-1+ double-positive nuclei fraction z-score” value is -0.36.

`CCC/N=C1\S/C(=C\c2ccc(OC[C@H](O)CO)c(Cl)c2)C(=O)N1c1ccccc1C` [Ponesimod]: the “KCl-induced FOS+/EGR-1+ double-positive nuclei fraction z-score” value came out at 0.771.

As to `OC[C@H]1O[C@@H](Oc2ccc(O)cc2)[C@H](O)[C@@H](O)[C@@H]1O` [Arbutin], the “KCl-induced FOS+/EGR-1+ double-positive nuclei fraction z-score” value is -0.334. On the same count and under the same terms, then `CCCCc1ncc(/C=C(\Cc2cccs2)C(=O)O)n1Cc1ccc(C(=O)O)cc1` [Eprosartan Mesylate], with -1.02; and `CCn1cc(-c2ccnc3[nH]c(-c4cccc(CN(C)C)c4)cc23)c(-c2ccc(NC(=O)N(C)C)cc2)n1`, with -0.84. On the same count and under the same terms, to `CCOC(=O)[C@@H](N)Cc1ccc(-c2cc(O[C@H](c3ccc(Cl)cc3-n3ccc(C)n3)C(F)(F)F)nc(N)n2)cc1` [Telotristat Etiprate (LX 1606 Hippurate)] belongs 0.49; to `COc1ccc(S(=O)(=O)Nc2cccnc2Nc2ccc(O)cc2)cc1`, -2.32.

In the case of `CC(C)c1cnn2c(NCc3ccccc3)cc(NCCCCCCN)nc12`, the “KCl-induced FOS+/EGR-1+ double-positive nuclei fraction z-score” value is -1.2. Still for that read-out and setting: to `Cn1cc(-c2cnn3c(N)c(Br)c([C@@H]4CCCNC4)nc23)cn1` belongs 1.91; to `C[C@@H]1COC(Nc2ccc3ncnc(Nc4ccc(OCc5nccs5)c(Cl)c4)c3c2)=N1` [Varlitinib], -0.923; to `COc1ccc(-c2coc3cc(O)cc(O)c3c2=O)cc1` [Biochanin A], -0.0126. Still for that read-out and setting: to `CC(C)(O)c1ccccc1CC[C@@H](SCC1(CC(=O)O)CC1)c1cccc(/C=C/c2ccc3ccc(Cl)cc3n2)c1` [Montelukast Sodium] belongs -0.103; to `CN(C)CCOc1ccc(-c2nc(-c3ccncc3)c(-c3ccc4c(c3)CC/C4=N\O)[nH]2)cc1`, -0.684. Same read-out and setting: to `CC(C)(C)NC(=O)[C@H]1CC[C@H]2[C@@H]3CC[C@H]4NC(=O)C=C[C@]4(C)[C@H]3CC[C@]12C` [Finasteride] belongs -0.255.

Consider `CC(C)(Cc1ccc2ccccc2c1)NC[C@@H](O)COc1cccc(Cl)c1C#N`, for which the “KCl-induced FOS+/EGR-1+ double-positive nuclei fraction z-score” value was -1.27.

As to `CCOC(=O)c1c(CSc2ccccc2)n(C)c2cc(Br)c(O)c(CN(C)C)c12` [Arbidol HCl], the “KCl-induced FOS+/EGR-1+ double-positive nuclei fraction z-score” value is -1.41. On to `CO/N=C(\C(=O)N[C@@H]1C(=O)N2C(C(=O)O)=C(CSC(=O)c3ccco3)CS[C@H]12)c1csc(N)n1` [Ceftiofur HCl], for which the “KCl-induced FOS+/EGR-1+ double-positive nuclei fraction z-score” value is -0.454. Still for that read-out and setting: then `O=C(CCCN1CCC(O)(c2ccc(Cl)cc2)CC1)c1ccc(F)cc1` [Haloperidol], with -1.48; and `C#Cc1cccc(Nc2ncnc3cc(OC)c(OCCCCCCC(=O)NO)cc23)c1`, with -1.43; and `Cc1onc(-c2ccccc2Cl)c1C(=O)N[C@@H]1C(=O)N2[C@@H]1SC(C)(C)[C@@H]2C(=O)O` [Cloxacillin Sodium], with -0.668.

With `COc1cc2nc(N3CCN(C(=O)C4COc5ccccc5O4)CC3)nc(N)c2cc1OC` (stereo unspecified) [Doxazosin Mesylate], the “KCl-induced FOS+/EGR-1+ double-positive nuclei fraction z-score” value was -0.626.

Values taken from the supplement of paper PMC11348887.
